# Results taken from PubChem BioAssay AID588590 (National Center for Advancing Translational Sciences (NCATS), 2011).
# Sequences of proteins named here, by UniProt entry; tags and fusion partners are left off. A change or cut given only in a name is not applied to a line headed by its entry.
# UniProt Q9UNA4: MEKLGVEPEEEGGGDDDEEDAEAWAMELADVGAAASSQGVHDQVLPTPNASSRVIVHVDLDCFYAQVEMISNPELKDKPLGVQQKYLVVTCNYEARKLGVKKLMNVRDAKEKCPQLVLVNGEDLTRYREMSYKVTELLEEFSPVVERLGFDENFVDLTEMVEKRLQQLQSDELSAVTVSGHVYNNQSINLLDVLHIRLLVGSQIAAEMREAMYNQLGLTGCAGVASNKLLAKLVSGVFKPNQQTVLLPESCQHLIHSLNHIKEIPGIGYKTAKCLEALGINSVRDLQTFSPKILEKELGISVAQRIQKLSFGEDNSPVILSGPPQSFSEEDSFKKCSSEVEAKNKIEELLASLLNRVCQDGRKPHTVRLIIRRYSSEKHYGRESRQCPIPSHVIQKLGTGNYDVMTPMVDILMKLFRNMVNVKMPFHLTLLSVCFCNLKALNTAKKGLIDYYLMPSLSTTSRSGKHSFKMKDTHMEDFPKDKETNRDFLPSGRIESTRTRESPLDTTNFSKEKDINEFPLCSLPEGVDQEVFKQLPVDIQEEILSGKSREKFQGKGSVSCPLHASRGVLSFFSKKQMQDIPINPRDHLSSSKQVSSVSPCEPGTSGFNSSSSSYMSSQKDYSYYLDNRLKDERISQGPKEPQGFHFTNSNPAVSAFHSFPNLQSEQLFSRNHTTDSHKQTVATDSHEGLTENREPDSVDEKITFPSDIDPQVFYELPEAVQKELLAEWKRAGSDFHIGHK
# About 4,000 (1%) of roughly 390,000 compounds were called active. Inconclusive means that the source gave no clear call. Such entries were picked first, then a sample of the others. The call rests on the fitted dose curve; in most records, active means well fitted inhibition curve with a large enough effect; inconclusive means small, poorly fitted or top-dose-only effect, or another doubt; inactive means no such curve, though single readings can be large or run the other way. A potency beside an inconclusive call is a rough fit, not a confirmed value.
# Biological target: DNA polymerase iota (Homo sapiens) (UniProt Q9UNA4)
# Test: qHTS for Inhibitors of Polymerase Iota
# Conditions: Pol iota fluorescent replication assay, 10 min; series mostly up to 115 µM
# Outline: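 Pol iota at 10 nM preincubated 15 min with compounds at room temperature; reaction started with fluorescent substrate, 50 nM final. Fluorescence read kinetically at 0 and 10 min; buffer-only wells as negative control.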
# Potency means the concentration at half of the fitted maximal effect.
row,Structure (SMILES),Potency
1,CNC(=S)N(CCO)Cc1cc2cc3c(cc2[nH]c1=O)OCCO3,"inconclusive: 79.4 µM [inhibitor, single point]"
2,COCCCn1c(SCC(=O)N2CCc3ccccc32)nnc1-c1ccoc1C,"inconclusive: 63.1 µM [inhibitor, partial curve, poor fit]"
3,CCn1cc(C(=O)O)c(=O)c2cnc(N3CCN(C(=S)Nc4ccccc4Cl)CC3)nc21,"inconclusive: 56.2 µM [inhibitor, partial curve, poor fit]"
4,O=C(COCc1cc(-c2cccs2)on1)N1CCN(c2ccc(F)cc2)CC1,inactive
5,CCOc1cccc(NC(=O)c2sc3nc(-c4ccc(F)cc4)ccc3c2N)c1,inactive
6,COc1cc(CNCCSc2nnnn2C)ccc1OCc1ccc(C)cc1,"inconclusive: 2.24 µM [inhibitor, full curve, poor fit]"
7,O=c1c(=O)n(-c2ccccc2)ccn1Cc1c(F)cccc1Cl,inactive
8,CC1S/C(=N/N=C/c2ccco2)N(Cc2ccc(F)cc2)C1=O (configuration not stated),"inconclusive: 7.94 µM [inhibitor, partial curve, poor fit]"
9,COCCN(C(=O)C1CC(=O)N(Cc2ccc(C)cc2)C1)c1c(N)n(CC(C)C)c(=O)[nH]c1=O (configuration not stated),"inconclusive: 4.47 µM [inhibitor, partial curve]"
10,O=C(CSc1nccc(=O)[nH]1)N1N=C2/C(=C/c3ccco3)CCCC2C1c1ccco1 (configuration not stated),active: 44.7 µM
11,CCOC(=O)C1=C(C)N(C)C(=O)NC1c1cc2c(cc1[N+](=O)[O-])OCO2 (configuration not stated),active: 2.82 µM
12,O=C(CN1CCN(C(=O)C2CCCO2)CC1)Nc1cc(Cl)ccc1Cl (configuration not stated),"inconclusive: 70.8 µM [inhibitor, partial curve, poor fit]"
13,COc1ccc(CNC(=S)N2CCN(Cc3ccccc3)CC2)cc1,"inconclusive: 3.98 µM [inhibitor, partial curve, poor fit]"
14,CC(C)COC(=O)N1C[C@H](O)C[C@H]1C(=O)Nc1ccc(Cl)cc1,inactive
15,O=C(NCCCN1CCOCC1)c1cc(-c2ccc(F)cc2)no1,"inconclusive: 70.8 µM [inhibitor, single point]"
16,N=c1c(C(=O)NCc2ccco2)cc2c(=O)n3ccccc3nc2n1C1CCCC1,"inconclusive: 12.6 µM [inhibitor, single point]"
17,c1csc(Cn2nnnc2CN2CCN(c3nc4ccccc4s3)CC2)c1,"inconclusive: 39.8 µM [inhibitor, single point]"
18,CCN1/C(=C/c2ccc3cc(C)ccc3[n+]2CC)Sc2ccccc21,"inconclusive: 28.2 µM [inhibitor, single point]"
19,Cn1c(=O)c2c(nc(SCc3ccc(C(=O)O)cc3)n2C)n(C)c1=O,"inconclusive: 44.7 µM [inhibitor, partial curve]"
20,CN(C[C@H](Cc1ccccc1)N(CCN(CCc1ccccc1)N=O)N=O)N=O,"inconclusive: 17.8 µM [inhibitor, partial curve, poor fit]"
21,Cn1c(N)c(C(=O)Nc2ccc(-c3ccccc3)cc2)sc1=S,"inconclusive: 20 µM [inhibitor, single point]"

# Looked up by structure from the entries so far, 2 records:
row,Structure (SMILES),Potency
6,COc1cc(CNCCSc2nnnn2C)ccc1OCc1ccc(C)cc1,"inconclusive: 2.24 µM [inhibitor, full curve, poor fit]"
4,O=C(COCc1cc(-c2cccs2)on1)N1CCN(c2ccc(F)cc2)CC1,inactive

# Later entries

row,Structure (SMILES),Potency
1,Nc1nc(-c2ccccc2)c(-c2ccccc2)s1,"inconclusive: 20 µM [inhibitor, partial curve]"
2,Cc1cccc(OCC(=O)NC(=S)NNC(=O)c2ccncc2)c1,inactive
3,C=C1NN(Cc2ccccc2)C(=O)N1c1ccc(OC)cc1,inactive
4,CC1=C(C(=O)Nc2ccccc2)C(c2cccc(Cl)c2)n2nc(SCC(=O)c3ccc(C)cc3)nc2N1 (configuration not stated),inactive
5,Cc1oc(C(=O)O)cc1CSCc1cc(C(=O)O)c(C)o1,"inconclusive: 20 µM [inhibitor, full curve, poor fit]"
6,CCCOc1ccc(-c2c(C(=O)N/N=C(\C)c3cccnc3)nnn2-c2nonc2N)cc1,active: 44.7 µM
7,O=C(Nc1ccc2oc(-c3ccc4ccccc4c3)nc2c1)c1ccc(Cl)c(Cl)c1,"inconclusive: 89.1 µM [inhibitor, single point]"
8,Cc1cccc(NC(=O)CN(c2ccc(C(C)C)cc2)S(=O)(=O)c2c(C)nn(C)c2C)n1,"inconclusive: 89.1 µM [inhibitor, single point]"
9,COC(=O)C1=C[C@@H](C(=O)OC)C2C3=C(C(=O)[C@@]2(C)NC(=O)c2ccccc2)[C@H](C)[C@@H]2C(=O)N(C)C(=O)[C@@H]2[C@@H]3C1 (some centres not stated),"inconclusive: 89.1 µM [inhibitor, single point]"
10,CN(C)CCCOC(=O)COc1ccc(Br)cc1,"inconclusive: 15.8 µM [inhibitor, single point]"
11,COC(=O)c1cc(Cl)ccc1NC(=O)CSc1ncc(S(=O)(=O)c2ccc(Br)cc2)c(=O)[nH]1,"inconclusive: 56.2 µM [inhibitor, partial curve, poor fit]"
12,Cc1cc2nc(-c3ccc(SCc4ccccn4)nc3)[nH]c2cc1C,active: 44.7 µM
13,COc1ccc(S(=O)(=O)/N=C2\C=C(Nc3ccc(O)cc3)C(=O)c3ccccc32)cc1,"inconclusive: 14.1 µM [inhibitor, full curve, poor fit]"
14,CC(C)CC(=O)Nc1ccccc1OCc1cc(=O)n2ccccc2n1,inactive
15,CN1CCCC1CCNc1ccc2oc3ccccc3c(=O)c2c1 (configuration not stated),"inconclusive: 50.1 µM [inhibitor, partial curve]"
16,Nc1ccc2nc(-c3ccccc3)[nH]c2c1,inactive
17,Cc1ccc(NC(=O)C(=O)NCC(c2ccc3c(c2)OCO3)N2CCOCC2)cc1C (configuration not stated),inactive
18,O=C(NCc1ccco1)C(=O)NCC1OCCN1S(=O)(=O)c1ccccc1 (configuration not stated),"inconclusive: 44.7 µM [inhibitor, partial curve, poor fit]"
19,Cc1cc2nccc(-c3ccc(Cl)cc3Cl)n2n1,"inconclusive: 11.2 µM [inhibitor, partial curve, poor fit]"
20,COc1ccc(Cl)cc1NC(=O)CCN1CCN(c2ccccc2C)CC1,"inconclusive: 100 µM [inhibitor, partial curve, poor fit]"
21,CCCCCC(=O)Nc1cccc(C2=NOC3(C2)C[C@@H](C(N)=O)N(C(=O)c2cc([N+](=O)[O-])cc([N+](=O)[O-])c2C)C3)c1 (some centres not stated),inactive
